This experiment concerns the target T1, Flag-tagged human melanoma differentiation-associated gene 5 (MDA5) (human) (UniProt Q9BYX4).
T1 sequence: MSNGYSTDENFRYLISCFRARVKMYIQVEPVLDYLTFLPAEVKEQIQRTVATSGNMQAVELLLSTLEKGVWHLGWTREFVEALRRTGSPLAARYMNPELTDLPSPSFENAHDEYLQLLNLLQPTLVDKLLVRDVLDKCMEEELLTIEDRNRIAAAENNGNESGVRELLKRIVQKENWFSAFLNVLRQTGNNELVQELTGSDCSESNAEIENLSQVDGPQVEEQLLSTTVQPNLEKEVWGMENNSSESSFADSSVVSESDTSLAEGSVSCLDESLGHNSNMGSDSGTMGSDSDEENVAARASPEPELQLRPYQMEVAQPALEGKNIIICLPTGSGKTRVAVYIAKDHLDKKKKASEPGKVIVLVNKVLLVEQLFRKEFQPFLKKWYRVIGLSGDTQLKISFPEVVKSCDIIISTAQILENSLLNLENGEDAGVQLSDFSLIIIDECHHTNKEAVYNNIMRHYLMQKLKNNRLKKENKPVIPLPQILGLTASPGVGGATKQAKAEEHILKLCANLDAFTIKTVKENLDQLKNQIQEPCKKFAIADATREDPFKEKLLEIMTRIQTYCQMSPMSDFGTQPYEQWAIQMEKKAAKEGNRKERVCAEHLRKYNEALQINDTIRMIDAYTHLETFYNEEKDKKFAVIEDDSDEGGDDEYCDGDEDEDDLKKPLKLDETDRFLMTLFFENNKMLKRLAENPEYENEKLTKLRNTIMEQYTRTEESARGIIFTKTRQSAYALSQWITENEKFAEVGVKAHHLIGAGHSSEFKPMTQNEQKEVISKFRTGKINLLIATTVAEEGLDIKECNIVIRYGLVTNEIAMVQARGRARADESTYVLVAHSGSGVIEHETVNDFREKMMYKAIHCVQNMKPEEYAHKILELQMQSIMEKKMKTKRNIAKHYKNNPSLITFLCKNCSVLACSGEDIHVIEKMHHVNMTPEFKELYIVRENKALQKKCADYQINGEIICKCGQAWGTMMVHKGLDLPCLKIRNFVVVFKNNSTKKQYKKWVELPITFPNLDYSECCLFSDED
The experiment in a line: co-IP.

No constants are given. Whether binding was seen depends on the method and setting. In cells and extracts the contact can be indirect. Some results given as binding are weak or reduced against the parent protein; the word gives no strength. Where a sequence is shown, tags or fusion partners need not be part of it.

On to “Hibit-tagged full-length SARS-CoV-2 nonstructural protein 3 (nsp3) (from UniProt P0DTD1)”, for which the binding entry was “binds”.

Source of the values: publication PMC9570369.
